Test results from patent US20070179152A1, “Combination therapy for the treatment of neoplasms” (priority 2003, published 2007).

Columns and labels:
HCT116 cells = assay: Anti-proliferation assay (Alamar Blue metabolism), HCT116; type: cell-based; conditions: Homo sapiens, itraconazole 0 μM, read-out: Percent inhibition of Alamar Blue Metabolism
Experimental: Amiodarone, nicardipine, and bepridil were obtained from Sigma Chemical Co. (St. Louis, Mo.). Itraconazole was obtained from […].). Stock solutions (1000×) of each compound were prepared in DMSO and stored at -20° C. Master stock plates of 2-fold serial dilutions of individual compounds were prepared in 384-well plates. Combination matrices of test compounds were generated from these master stock plates by dilution into growth media described above. […] The combination matrices were used immediately and discarded. The anti-proliferation assays were performed in 384 well plates. […] Cells were diluted in culture media such that 3,000 SKMEL cells, or 1,500 cells for all the other cell lines, were delivered in 35 μl of media into each assay well. […] Then, 4.5 μl of 10× stock solutions from the combination matrices were added to 40 μl of culture media. […] Quantification, using the LJL Analyst AD reader (LJL Biosystems), was taken in the middle of the well with high attenuation, a 100 msec read time, an excitation filter at 530 nm, and an emission filter at 575 nm. For some experiments, quantification was performed using a Wallac Victor^2 reader. Measurements were taken at the top of the well with stabilized energy lamp control; a 100 msec read time, an excitation filter at 530 nm, and an emission filter at 590 nm. No significant differences between plate readers were measured. […] Negative inhibition values result from local variations in treated wells as compared to untreated wells.

DU145 cells = assay: Anti-proliferation assay (Alamar Blue metabolism), DU145; type: cell-based, human; conditions: itraconazole 0 μM
Experimental: (§1) Itraconazole was obtained from […].). Stock solutions (1000×) of each compound were prepared in DMSO and stored at -20° C. Master stock plates of 2-fold serial dilutions of individual compounds were prepared in 384-well plates. Combination matrices of test compounds were generated from these master stock plates by dilution into growth media described above. […] The combination matrices were used immediately and discarded. The anti-proliferation assays were performed in 384 well plates. […] Cells were diluted in culture media such that 3,000 SKMEL cells, or 1,500 cells for all the other cell lines, were delivered in 35 μl of media into each assay well. […] Then, 4.5 μl of 10× stock solutions from the combination matrices were added to 40 μl of culture media. […] Quantification, using the LJL Analyst AD reader (LJL Biosystems), was taken in the middle of the well with high attenuation, a 100 msec read time, an excitation filter at 530 nm, and an emission filter at 575 nm. For some experiments, quantification was performed using a Wallac Victor^2 reader. Measurements were taken at the top of the well with stabilized energy lamp control; a 100 msec read time, an excitation filter at 530 nm, and an emission filter at 590 nm.

A549 cells = assay: Anti-proliferation assay (Alamar Blue metabolism), A549; type: cell-based
Experimental: as §1

SKMEL-28 cells = assay: Anti-proliferation assay (Alamar Blue metabolism), SKMEL-28; type: cell-based; conditions: Homo sapiens, SK-MEL-28; read-out: Percent inhibition of Alamar Blue Metabolism
Experimental: as §1

[1] = Homo sapiens, A549, read-out: Percent inhibition of Alamar Blue Metabolism

SMILES: CCCCc1oc2ccccc2c1C(=O)c1cc(I)c(OCCN(CC)CC)c(I)c1 [Amiodarone, (2-Butyl-3-benzofuranyl)(4-(2-(diethylamino)ethoxy)-3,5-diidophenyl)methanone]
- inhibition at 0.23 µM (HCT116 cells; HCT-116, amiodarone 0.23 μM): -3.7%
- inhibition at 0.46 µM (HCT116 cells; HCT-116, amiodarone 0.46 μM): -3.7%
- inhibition at 0.92 µM (HCT116 cells; HCT-116, amiodarone 0.92 μM): 3.1%
- inhibition at 1.8 µM (HCT116 cells; HCT-116, amiodarone 1.8 μM): -1.4%
- inhibition at 3.7 µM (HCT116 cells; HCT-116, amiodarone 3.7 μM): 7.6%
- inhibition at 7.3 µM (HCT116 cells; HCT-116, amiodarone 7.3 μM): 7.4%
- inhibition at 15 µM (HCT116 cells; HCT-116, amiodarone 15 μM): 36%
- inhibition at 29 µM (HCT116 cells; HCT-116, amiodarone 29 μM): 94.7%
- inhibition at 0.23 µM (DU145 cells; Homo sapiens, DU-145, amiodarone 0.23 μM, read-out: Percent inhibition of Alamar Blue Metabolism): -6%
- inhibition at 0.46 µM (DU145 cells; Homo sapiens, DU-145, amiodarone 0.46 μM, read-out: Percent inhibition of Alamar Blue Metabolism): -3%
- inhibition at 0.92 µM (DU145 cells; Homo sapiens, DU-145, amiodarone 0.92 μM, read-out: Percent inhibition of Alamar Blue Metabolism): 0.4%
- inhibition at 1.8 µM (DU145 cells; Homo sapiens, DU-145, amiodarone 1.8 μM, read-out: Percent inhibition of Alamar Blue Metabolism): -3.1%
- inhibition at 3.7 µM (DU145 cells; Homo sapiens, DU-145, amiodarone 3.7 μM, read-out: Percent inhibition of Alamar Blue Metabolism): 2.3%
- inhibition at 7.3 µM (DU145 cells; Homo sapiens, DU-145, amiodarone 7.3 μM, read-out: Percent inhibition of Alamar Blue Metabolism): -0.8%
- inhibition at 15 µM (DU145 cells; Homo sapiens, DU-145, amiodarone 15 μM, read-out: Percent inhibition of Alamar Blue Metabolism): -4.3%
- inhibition at 29 µM (DU145 cells; Homo sapiens, DU-145, amiodarone 29 μM, read-out: Percent inhibition of Alamar Blue Metabolism): 60.5%
- Percent inhibition of Alamar Blue Metabolism (DU145 cells; amiodarone 29 μM): 50.5%
- inhibition at 0.23 µM (A549 cells; [1]): 2%
- inhibition at 0.46 µM (A549 cells; [1]): -1.6%
- inhibition at 1.8 µM (A549 cells; [1]): 3.2%
- inhibition at 3.7 µM (A549 cells; [1]): 2.6%
- inhibition at 7.3 µM (A549 cells; [1]): -3.6%
- inhibition at 15 µM (A549 cells; [1]): 17.3%
- inhibition at 29 µM (A549 cells; [1]): 90.7%
- Percent inhibition of Alamar Blue Metabolism (A549 cells; amiodarone 7.3 μM, itraconazole 0 μM): practically no inhibition
- inhibition at 0.23 µM (SKMEL-28 cells): 2.2%
- inhibition at 0.92 µM (SKMEL-28 cells): 3.8%
- inhibition at 1.8 µM (SKMEL-28 cells): 0.8%
- inhibition at 3.7 µM (SKMEL-28 cells): -0.3%
- inhibition at 7.3 µM (SKMEL-28 cells): 1.4%
- inhibition at 15 µM (SKMEL-28 cells): 22%
- inhibition at 29 µM (SKMEL-28 cells): 96.1%
